Drawing on the GenesisPotency data set, this text covers outcome for 8 compounds.

The chains behind the UniProt entries cited, without tags or fusion partners.
UniProt Q16637, whole entry: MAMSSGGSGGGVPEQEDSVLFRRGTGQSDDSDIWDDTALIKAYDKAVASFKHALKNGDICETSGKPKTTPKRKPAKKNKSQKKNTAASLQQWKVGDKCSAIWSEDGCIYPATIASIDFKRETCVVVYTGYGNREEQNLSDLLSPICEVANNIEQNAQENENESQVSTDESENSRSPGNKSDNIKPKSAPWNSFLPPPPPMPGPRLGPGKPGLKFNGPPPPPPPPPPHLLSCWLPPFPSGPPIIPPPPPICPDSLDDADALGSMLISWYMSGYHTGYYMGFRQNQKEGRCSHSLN

Out of some 210,000 compounds screened, about 5,900 (2.8%) were called active. About 5% were inconclusive and are not listed. Calls follow the shape of the dose curve; as a rule, active = well fitted activation curve with a large enough effect; inconclusive = small, poorly fitted or top-dose-only effect; inactive = no such curve, though single readings can be large or run the other way. The list shows a part of the results.

The target in this assay is Survival motor neuron protein, Homo sapiens (UniProt Q16637). The experiment in a line: qHTS Assay for Enhancers of SMN2 Splice Variant Expression. Background: qHTS replaces the single test concentration by a dilution series.
For the compound `COc1cc(-c2nc3cnccn3c2Nc2ccc(C(C)C)cc2)ccc1O`, the outcome was inactive.

With `COc1ccc(C2Sc3ccccc3N(CCN(C)C)C(=O)[C@@H]2OC(C)=O)cc1` (stereo partly drawn), the outcome was inactive. For `COc1ccc2[nH]c(=O)c3c(c2c1)OC(C)(C)C=C3`, the result was inactive. Next, `CC1=C(C#N)C(NC(=O)c2ccccc2Cl)(C(F)(F)F)C(=O)N1` (stereo not drawn): “inactive”. The value for `Cc1ncc([N+](=O)[O-])n1CC(C)O` (stereo not drawn) was “inactive”. Take `Cc1cccc(Cn2c(Cc3ccccc3)nc3ccccc32)c1`: the outcome was inactive. Regarding `COc1ccc2nc(C)cc(SCC(=O)[O-])c2c1.[Na+]`, the outcome was inactive. The value for `NCCc1cccc(O)c1` was “inactive”.
